Patent US7141541B1, “Use of peptides” (University Court of the University of Dundee, priority 1999, dated 2006)
Some results were stated once for a whole list of compounds, not compound by compound.

System: MRC5 cells
Assay: cell survival by MTT assay
Type: cell-based
Conditions: 72 h serum-starved MRC5 cells
Experimental: FIGS. 13a–d are graphs showing cell survival (% of control, untreated cells) as measured by MTT assay. a) Lane 1: 10 μM BP2 peptide added to serum-fed cells or Lane 2, 3, 4: 10 μM BP2 peptide added to 24 h, 48 h or 72 h serum-starved cells respectively. Lane 5: 10 μM BP2 YLL-AAA added to 72 h serum starved cells. Lane 6: 72 h serum starved cells incubated in 10% serum for 1 h prior to addition to 10 μM BP2 peptide. Lane 7: 72 h serum starved cells incubated with 100 μg/ml cycloheximide followed by a 1 h incubation with 10% serum prior to the addition of 10 μM BP2 peptide. In all cases the cells were then further incubated for 1 h in 0.1 mg/ml MTT. Cells were lysed in DMSO and absorbance was measured at […]. b–d) Varying concentrations of peptides were added to 72 h serum starved MRC5 cells. After 30 min incubation the cells were then further incubated for 1 h in 0.1 mg/ml MTT. Cells were lysed in DMSO and absorbance was measured at 570 nm.

Substance | time to rapid cell death (10 μM peptide) [h] | time to rapid cell death (20 μM peptide) [h]
W4G: biotinylated, penetratin-linked peptide of the eIF4E binding motif of wheat eIF4G (RVRYSRDQLLDLRQIKIWFQNRRMKWKK) | ≤ 1 | ≤ 0.5
BP2: biotinylated, penetratin-linked eIF4E binding peptide from human 4E-BP2 (RIIYDRKFLLDR; left off: things letters cannot carry; large carriers; small tags and cut ends) | ≤ 1 | ≤ 0.5
